These results are taken from US11746085B2, “Triphenylsulfonium salt compound, and uses thereof” (Changzhou Tronly Advanced Electronic Materials Co., Ltd., priority 2018, dated 2023).

Data set [1] is described as follows: Acid production rate test (UV irradiation of acetonitrile solution, KOH titration). Conditions: 0.02 mmol/g acetonitrile solution, 200 mj/cm^2 cumulative energy at 0.8 mw/cm^2, ultraviolet lamp FL10BL, titrated with 0.05N KOH in ethanol.
Data set [2] can be described thus: Photosensitivity test: minimum exposure amount to form the resist pattern in an exemplary photoresist. Conditions: 20 μm photoresist coating, 1 part by mass photoinitiator, line i exposure, 10 μm line pattern, lower value = higher photosensitivity.

In data set [1] (Table 3), `Cc1ccc([S+](c2ccc(C)c(F)c2)c2ccc(C)c(F)c2)cc1` [Compound A-3] registered an Acid production rate of 80%. For the same compound, the Minimum exposure amount in data set [2] (Table 3) turned out to be 150 mj/cm^2.

`Cc1ccc([S+](c2ccc(C)c(F)c2)c2ccc3c(c2)Cc2cc([S+](c4ccc(C)c(F)c4)c4ccc(C)c(F)c4)ccc2-3)cc1F` [Compound C-21] gave an Acid production rate in data set [1] (Table 4) of 80%. Also, the Minimum exposure amount in data set [2] (Table 4) worked out at 130 mj/cm^2.

In turn, `Cc1ccc([S+](c2ccc(Oc3ccc([S+](c4ccc(C)c(F)c4)c4ccc(C)c(F)c4)cc3)cc2)c2ccc(C)c(F)c2)cc1F` [Compound C-8] registered an Acid production rate in data set [1] (Table 4) of 80%. In data set [2] (Table 4), this compound gave a Minimum exposure amount of 130 mj/cm^2.

On to `Cc1ccc([S+](c2ccc(-c3ccccc3)cc2)c2ccc(C)c(F)c2)cc1F` [Compound A-15], for which the Acid production rate in data set [1] (Table 3) came out at 84%. The compound also returned a Minimum exposure amount in data set [2] (Table 3) of 120 mj/cm^2.

Compound `Cc1ccc([SH](c2ccc(C)c(F)c2)c2ccc(C)c(F)c2)cc1F` [Compound A-10] had an Acid production rate in data set [1] (Table 3) of 80%. This compound also displayed a Minimum exposure amount in data set [2] (Table 3) of 160 mj/cm^2.

In turn, `Cc1ccc([S+](c2ccc(Sc3ccc([S+](c4ccc(C)c(F)c4)c4ccc(C)c(F)c4)cc3C)c(C)c2)c2ccc(C)c(F)c2)cc1F` [Compound C-12] had an Acid production rate in data set [1] (Table 4) of 84%. In addition, the Minimum exposure amount in data set [2] (Table 4) came out at 110 mj/cm^2.

Regarding `CC(=O)c1cc([SH](c2ccc(Sc3ccccc3)cc2)c2ccc(C)c(C(C)=O)c2)ccc1C` [Compound A-16], in data set [1] (Table 3), the Acid production rate is 82%. For the same compound, the Minimum exposure amount in data set [2] (Table 3) came to 120 mj/cm^2.

In data set [1] (Table 3), `COc1ccc([S+](c2ccc(Sc3ccccc3)cc2)c2ccc(OC)c(F)c2)cc1F` [Compound A-35] had an Acid production rate of 81%. The Minimum exposure amount in data set [2] (Table 3) is 140 mj/cm^2.

`CCc1ccc([S+](c2ccc(OC)cc2)c2ccc(CC)c(F)c2)cc1F` [Compound A-28] yielded an Acid production rate in data set [1] (Table 3) of 85%. In data set [2] (Table 3), this compound returned a Minimum exposure amount of 120 mj/cm^2.

For `CC(=O)c1ccc([S+](c2ccccc2)c2ccc(C)c(C#N)c2)cc1` (stereo not shown) [Compound A-7], in data set [1] (Table 3), the Acid production rate is 65%. The Minimum exposure amount in data set [2] (Table 3) worked out at 200 mj/cm^2.

For `Cc1ccc([SH](c2ccc(C)c(F)c2)c2ccc3c(c2)oc2cc([SH](c4ccc(C)c(F)c4)c4ccc(C)c(F)c4)ccc23)cc1F` [Compound C-23], the Acid production rate in data set [1] (Table 4) worked out at 77%. In addition, in data set [2] (Table 4), the Minimum exposure amount was 150 mj/cm^2.

In data set [1] (Table 3), `Cc1ccc([S+](c2ccc(Oc3ccccc3)cc2)c2ccc(C)c(F)c2)cc1F` [Compound A-13] showed an Acid production rate of 72%. For the same compound, the Minimum exposure amount in data set [2] (Table 3) is listed as 180 mj/cm^2.

The compound `Cc1ccc([S+](c2ccc(Sc3ccc([S+](c4ccc(C)c(C(F)(F)F)c4)c4ccc(C)c(C(F)(F)F)c4)cc3)cc2)c2ccc(C)c(C(F)(F)F)c2)cc1C(F)(F)F` [Compound C-2] returned an Acid production rate in data set [1] (Table 4) of 84%. Also, the Minimum exposure amount in data set [2] (Table 4) worked out at 110 mj/cm^2.

Take `Cc1ccc([S+](c2ccc(Sc3ccc([S+](c4ccc(C)c(F)c4)c4ccc(C)c(F)c4)cc3)cc2)c2ccc(C)c(F)c2)cc1F` [Compound C-1]: the Acid production rate in data set [1] (Table 4) is 87%. This compound also gave a Minimum exposure amount in data set [2] (Table 4) of 100 mj/cm^2.

With `CCc1ccc([S+](c2ccc(OCCO)cc2)c2ccc(CC)c([N+](=O)[O-])c2)cc1[N+](=O)[O-]` [Compound A-32], the Acid production rate in data set [1] (Table 3) is 80%. Besides, the Minimum exposure amount in data set [2] (Table 3) was found to be 150 mj/cm^2.

Regarding `CCc1ccc([S+](c2ccc(Sc3ccc([S+](c4ccc(CC)c(C(F)(F)F)c4)c4ccc(CC)c(C(F)(F)F)c4)cc3)cc2)c2ccc(CC)c(C(F)(F)F)c2)cc1C(F)(F)F` [Compound C-6], the Acid production rate in data set [1] (Table 4) is 84%. The Minimum exposure amount in data set [2] (Table 4) was 110 mj/cm^2.

Regarding `Cc1ccc([SH](c2ccc(Sc3ccc(C(=O)c4ccccc4)cc3)cc2)c2ccc(C)c(F)c2)cc1F` [Compound A-30], the Acid production rate in data set [1] (Table 3) worked out at 83%. In addition, the Minimum exposure amount in data set [2] (Table 3) is 110 mj/cm^2.

Regarding `COc1ccc([S+](c2ccccc2)c2ccc(Sc3ccc([S+](c4ccccc4)c4ccc(OC)c(F)c4)cc3)cc2)cc1F` (stereo not shown) [Compound C-18], in data set [1] (Table 4), the Acid production rate was found to be 72%. For the same compound, the Minimum exposure amount in data set [2] (Table 4) came to 190 mj/cm^2.

Take `Cc1ccc([S+](c2ccc(/C=C/c3ccccc3)cc2)c2ccc(C)c(F)c2)cc1F` [Compound A-37]: the Acid production rate in data set [1] (Table 3) was found to be 85%. The Minimum exposure amount in data set [2] (Table 3) was 110 mj/cm^2.

The compound `Cc1ccc([S+](c2ccccc2)c2ccc(Sc3ccc([S+](c4ccccc4)c4ccc(C)cc4)cc3)cc2)cc1` [Compound D-2, reference compound] gave an Acid production rate in data set [1] (Table 4) of 49%. Moreover, the Minimum exposure amount result in data set [2] (Table 4) was “More than 300 mj/cm^2”.

Take `CC(C)c1ccc([S+](c2ccc(-c3ccc([S+](c4ccc(C(C)C)c(F)c4)c4ccc(C(C)C)c(F)c4)cc3)cc2)c2ccc(C(C)C)c(F)c2)cc1F` [Compound C-19]: the Acid production rate in data set [1] (Table 4) was 78%. Further, the Minimum exposure amount in data set [2] (Table 4) came out at 140 mj/cm^2.

For `CCCCC1(CCCC)c2cc([S+](c3ccc(C)c(F)c3)c3ccc(C)c(F)c3)ccc2-c2ccc([S+](c3ccc(C)c(F)c3)c3ccc(C)c(F)c3)cc21` [Compound C-22], the Acid production rate in data set [1] (Table 4) is recorded as 78%. The compound also showed a Minimum exposure amount in data set [2] (Table 4) of 140 mj/cm^2.

In data set [1] (Table 4), `Cc1ccc([S+](c2ccc(Sc3ccc([S+](c4ccc(C)c(C#N)c4)c4ccc(C)c(C#N)c4)cc3)cc2)c2ccc(C)c(C#N)c2)cc1C#N` [Compound C-4] registered an Acid production rate of 82%. This compound gave a Minimum exposure amount in data set [2] (Table 4) of 120 mj/cm^2.

As for `Fc1ccc([S+](c2ccccc2)c2ccccc2)cc1F` [Compound A-5], in data set [1] (Table 3), the Acid production rate is recorded as 68%. Further, in data set [2] (Table 3), the Minimum exposure amount is 200 mj/cm^2.

Regarding `Cc1ccc([S+](c2ccc(Sc3ccccc3)cc2)c2ccc(C)c(C(=O)Cl)c2)cc1C(=O)Cl` [Compound A-19], in data set [1] (Table 3), the Acid production rate is reported as 82%. In data set [2] (Table 3), the Minimum exposure amount is 120 mj/cm^2.

`Fc1cc([S+](c2ccc(Sc3ccccc3)cc2)c2ccc(Cc3ccccc3)c(F)c2)ccc1Cc1ccccc1` [Compound A-36] showed an Acid production rate in data set [1] (Table 3) of 83%. The Minimum exposure amount in data set [2] (Table 3) came out at 110 mj/cm^2.

With `CCn1c2cc([SH](c3ccc(C)c(C(F)(F)F)c3)c3ccc(C)c(C(F)(F)F)c3)ccc2c2ccc([SH](c3ccc(C)c(C(F)(F)F)c3)c3ccc(C)c(C(F)(F)F)c3)cc21` [Compound C-25], in data set [1] (Table 4), the Acid production rate is listed as 75%. Further, the Minimum exposure amount in data set [2] (Table 4) turned out to be 170 mj/cm^2.

`CCc1ccc([S+](c2ccc(Sc3ccc([S+](c4ccc(CC)c(F)c4)c4ccc(CC)c(F)c4)cc3)cc2)c2ccc(CC)c(F)c2)cc1F` [Compound C-5] displayed an Acid production rate in data set [1] (Table 4) of 92%. For the same compound, the Minimum exposure amount in data set [2] (Table 4) amounted to 80 mj/cm^2.

Consider `Cc1ccc([S+](c2ccc(C)c(F)c2)c2ccc3oc4ccccc4c3c2)cc1F` [Compound A-24], for which the Acid production rate in data set [1] (Table 3) stood at 83%. In data set [2] (Table 3), this compound came in with a Minimum exposure amount of 120 mj/cm^2.

`Cc1ccc([S+](c2ccc(C)c(C#N)c2)c2ccc(C)c(C#N)c2)cc1C` [Compound A-18] gave an Acid production rate in data set [1] (Table 3) of 85%. The Minimum exposure amount in data set [2] (Table 3) stood at 110 mj/cm^2.

Regarding `Cc1ccc([S+](c2ccc(Sc3ccc([S+](c4ccc(C)c(C#N)c4)c4ccc(C)c(C#N)c4)cc3C)c(C)c2)c2ccc(C)c(C#N)c2)cc1C#N` [Compound C-13], in data set [1] (Table 4), the Acid production rate came out at 80%. This compound yielded a Minimum exposure amount in data set [2] (Table 4) of 130 mj/cm^2.

For the compound `Cc1ccc([S+](c2ccc(-c3ccc([S+](c4ccc(C)c(F)c4)c4ccc(C)c(F)c4)cc3)cc2)c2ccc(C)c(F)c2)cc1F` [Compound C-10], the Acid production rate in data set [1] (Table 4) is given as 79%. The Minimum exposure amount in data set [2] (Table 4) was 140 mj/cm^2.

In the case of `Cc1ccc([S+](c2ccccc2)c2ccccc2)cc1` [Compound B-2, reference compound], in data set [1] (Table 3), the Acid production rate was 43%. Moreover, the Minimum exposure amount result in data set [2] (Table 3) was “More than 300 mj/cm^2”.

For `Cc1ccc([S+](c2ccc(C)c(F)c2)c2ccc(C)c(F)c2)cc1` [Compound A-11], the Acid production rate in data set [1] (Table 3) was found to be 75%. Besides, the Minimum exposure amount in data set [2] (Table 3) is on record as 170 mj/cm^2.

Take `Cc1ccc([S+](c2ccccc2)c2ccccc2)cc1C(F)(F)F` [Compound A-6]: in data set [1] (Table 3), the Acid production rate stood at 78%. The same compound came in with a Minimum exposure amount in data set [2] (Table 3) of 160 mj/cm^2.

In data set [1] (Table 4), `Cc1ccc([S+](c2ccc(C)c(F)c2)c2ccc3c(c2)sc2cc([S+](c4ccc(C)c(F)c4)c4ccc(C)c(F)c4)ccc23)cc1F` [Compound C-24] showed an Acid production rate of 77%. In data set [2] (Table 4), this compound returned a Minimum exposure amount of 150 mj/cm^2.

For the compound `Fc1cccc([S+](c2ccccc2)c2ccc(Sc3ccc([S+](c4ccccc4)c4cccc(F)c4)cc3)cc2)c1` [Compound D-1, reference compound], the Acid production rate in data set [1] (Table 4) is recorded as 74%. Besides, in data set [2] (Table 4), the Minimum exposure amount turned out to be 180 mj/cm^2.

In the case of `Cc1ccc([S+](c2ccc(Sc3ccccc3)cc2)c2ccc(C)c([N+](=O)[O-])c2)cc1[N+](=O)[O-]` [Compound A-27], the Acid production rate in data set [1] (Table 3) is listed as 78%. For the same compound, the Minimum exposure amount in data set [2] (Table 3) is 170 mj/cm^2.

`Fc1cccc([S+](c2ccccc2)c2ccccc2)c1` [Compound B-1, reference compound] returned an Acid production rate in data set [1] (Table 3) of 70%. The compound also registered a Minimum exposure amount in data set [2] (Table 3) of 200 mj/cm^2.

`Cc1ccc(-[s+]2c3ccccc3c(=O)c3cc(C(C)C)ccc32)cc1F` (stereo not shown) [Compound A-2] showed an Acid production rate in data set [1] (Table 3) of 81%. Also, in data set [2] (Table 3), the Minimum exposure amount was 140 mj/cm^2.

For `Cc1ccc([S+](c2ccc(/C=C/c3ccc([S+](c4ccc(C)c(F)c4)c4ccc(C)c(F)c4)cc3)cc2)c2ccc(C)c(F)c2)cc1F` [Compound C-7], the Acid production rate in data set [1] (Table 4) is listed as 82%. In addition, in data set [2] (Table 4), the Minimum exposure amount is 120 mj/cm^2.
